# Patent CN111440239A
# Sequences of proteins named here, by UniProt entry; tags and fusion partners are left off. A change or cut given only in a name is not applied to a line headed by its entry. A line that says so, or that is headed by a name, gives the form on record, which may keep a tag or linker.
# TGF-β1纯化蛋白 (recombinant human TGF-β1 with C-terminal 6His, from HEK-293T supernatant; holds LAP前体, TGF-β1单体 and 二聚体) (P01137, form named): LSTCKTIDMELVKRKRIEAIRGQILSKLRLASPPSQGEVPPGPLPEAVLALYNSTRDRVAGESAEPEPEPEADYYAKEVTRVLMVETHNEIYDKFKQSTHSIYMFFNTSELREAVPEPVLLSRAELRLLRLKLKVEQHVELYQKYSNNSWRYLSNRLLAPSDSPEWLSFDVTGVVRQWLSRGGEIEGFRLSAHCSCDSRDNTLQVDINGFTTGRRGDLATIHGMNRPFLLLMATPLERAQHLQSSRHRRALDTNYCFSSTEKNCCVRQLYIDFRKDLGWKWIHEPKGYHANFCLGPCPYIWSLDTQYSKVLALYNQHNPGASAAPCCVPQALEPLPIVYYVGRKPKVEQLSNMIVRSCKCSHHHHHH
# Results are given in words; binding and its absence hold for the method and conditions named. Some binding calls cover weakened binding; strength is not graded here.
# B1: 纳米抗体TGF-β1-VHH (B3纳米抗体), phage-displayed, culture supernatant of positive clone B3 (VHH)
# VHH: ESGGGLAQAGGSLRLSCAASGSTFSINTMGWYRTVPGKQRELVALISSGGSTLYADFAKGRFTISRDNAKNTVYLQMNSLKPEDTAVYYCRSKGIGYDYWGQGTQVTVSS
# Biological target: TGF-β1纯化蛋白 (recombinant human TGF-β1 with C-terminal 6His, from HEK-293T supernatant; holds LAP前体, TGF-β1单体 and 二聚体) (human) (UniProt P01137)
# Assay: indirect phage ELISA, TGF-β1 purified protein coated on the plate, anti-M13K07 enzyme conjugate; positive = reading at least 2-fold over the negative control
binder,measurement,value
B1,binding,binds
